According to patent publication US20100269180A1:
No constants are given. Whether binding was seen depends on the method and setting. Binding calls can cover weak binding; strength is not graded here.

Columns and labels:
[1] = molecular target: T1, T-cadherin (endogenous, mouse, on cardiomyocyte surfaces) (mouse) (UniProt Q9WTR5); experiment: immunostaining of hearts of adAPN-treated adiponectin null mice
T1 sequence (GPI anchor, looked up): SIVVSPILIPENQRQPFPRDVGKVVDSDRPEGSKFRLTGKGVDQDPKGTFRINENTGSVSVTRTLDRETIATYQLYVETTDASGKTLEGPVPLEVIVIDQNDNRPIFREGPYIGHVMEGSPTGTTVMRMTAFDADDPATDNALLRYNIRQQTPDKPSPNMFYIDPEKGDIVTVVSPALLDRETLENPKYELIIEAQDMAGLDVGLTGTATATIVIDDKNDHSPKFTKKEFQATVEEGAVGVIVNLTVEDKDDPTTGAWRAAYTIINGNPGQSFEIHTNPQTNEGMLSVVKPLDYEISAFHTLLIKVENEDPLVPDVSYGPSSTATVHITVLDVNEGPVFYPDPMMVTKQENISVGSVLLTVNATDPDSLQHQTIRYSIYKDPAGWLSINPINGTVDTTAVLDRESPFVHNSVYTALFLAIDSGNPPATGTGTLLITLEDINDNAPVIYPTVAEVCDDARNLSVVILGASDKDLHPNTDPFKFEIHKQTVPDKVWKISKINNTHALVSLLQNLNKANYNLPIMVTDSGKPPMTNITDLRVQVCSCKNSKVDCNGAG

[2] = molecular target: T1, T-cadherin (endogenous, mouse, on cardiomyocyte surfaces) (mouse); experiment: immunostaining of hearts of adAPN-treated adiponectin null mice (FIG. 13A legend)

In the case of “adenovirus-expressed recombinant adiponectin (ligand)”, the binding [1] was “binds” and the binding [2] was “binds”.
